Counter-ions that a name gives are not always drawn. ± gives the standard deviation of the averaged measurements. The list shows a part of the results. Repeats are few or missing, and single values can be far off.
tested on: Reh; assay: S-phase gammaH2AX median, Z-score vs plate median (drug alone); higher = more S-phase DNA damage; conditions: MK1775 concentration 0 nM; 10 µM; 4 h

| Structure (SMILES) | S-phase gammaH2AX median (Z-score) |
| --- | --- |
| CN1CCN(c2cccc(Nc3nc4c(-c5ccc(S(C)(=O)=O)cc5)cccn4n3)c2)CC1 | -0.07 |
| CNNCc1ccc(C(=O)NC(C)C)cc1 [Procarbazine hydrochloride (Matulane)] | 0.0893 |
| NS(=O)(=O)c1cc2c(cc1Cl)NCNS2(=O)=O [Hydrochlorothiazide] | 0.0661 |
| CN(C)CCC=C1c2ccccc2C=Cc2ccccc21 [Cyclobenzaprine hydrochloride] | -0.033 |
| CC(c1cc2ccccc2s1)N(O)C(N)=O (configuration not stated) [Zileuton] | 0.0769 |
| CC(=O)Oc1cc(C(C)C)c(OCCN(C)C)cc1C [Moxisylyte hydrochloride] | -0.0473 |
| CC1=C(/C=C/C(C)=C/C=C/C(C)=C/C(=O)Nc2ccc(O)cc2)C(C)(C)CCC1 [Retinoic acid p-hydroxyanilide] | 0.0693 |
| CC1=C(/C=C/C(C)=C/C=C/C(C)=C/C(=O)Nc2ccc(O)cc2)C(C)(C)CCC1 [Fenretinide] | 0.000387 |
| COc1cc2c(cc1OC)[C@@H](c1ccccc1)CN(C)CC2 | 0.394 |
| CCN(CC)CCOC(=O)C1(C2CCCCC2)CCCCC1 [Dicyclomine hydrochloride] | 0.0819 |
| CC(N/C(=N\C#N)Nc1ccncc1)C(C)(C)C (configuration not stated) [Pinacidil] | -0.0781 |
| C[N+]1(C)CCC(OC(=O)C(c2ccccc2)c2ccccc2)CC1 [4-DAMP methiodide] | 0.0661 |
| Oc1cc(O)c2c(c1)O[C@H](c1ccc(O)c(O)c1)[C@@H](O)C2 [(+)-Catechin Hydrate] | -0.0272 |
| CN(C)CCCN1c2ccccc2Sc2ccc(C(F)(F)F)cc21 [Triflupromazine hydrochloride] | -0.367 |
| N=C(NC(=O)c1nc(Cl)c(N)nc1N)Nc1ccccc1 [Phenamil methanesulfonate] | 0.206 |
| COc1cc(C(=O)OCCCN2CCCN(CCCOC(=O)c3cc(OC)c(OC)c(OC)c3)CC2)cc(OC)c1OC [Dilazep hydrochloride] | -0.0346 |
| COC(=O)C1=C(C)NC(C)=C([N+](=O)[O-])C1c1ccccc1C(F)(F)F (configuration not stated) | 0.0854 |
| COc1ccc(-c2ccc3c(N4CCOC[C@@H]4C)nc(N4CCOC[C@@H]4C)nc3n2)cc1CO | -0.0182 |
| C#CC(N)CCC(=O)O (configuration not stated) [gamma-Acetylinic GABA] | -0.0641 |
| NCCC[C@](N)(C(=O)O)C(F)F (racemic) [DL-alpha-Difluoromethylornithine hydrochloride] | 0.0535 |
| N#Cc1ccc(C(c2ccc(C#N)cc2)n2cncn2)cc1 [Letrozole] | -0.00812 |

| Structure (SMILES) | S-phase gammaH2AX median (Z-score) |
| --- | --- |
| CN1CCN(C2=Nc3ccccc3Oc3ccc(Cl)cc32)CC1 [Loxapine succinate] | 0.00473 |
| CC(=O)S[C@@H]1CC2=CC(=O)CC[C@]2(C)[C@H]2CC[C@@]3(C)[C@@H](CC[C@@]34CCC(=O)O4)[C@H]12 [Spironolactone] | -0.0467 |
| C#Cc1cccc(Nc2ncnc3cc(OC)c(OCCCCCCC(=O)NO)cc23)c1 | 0.11 |
| NNCCc1ccccc1 [Phenelzine sulfate] | -0.0213 |
| NC1(C(=O)O)CCCCC1 [1-Amino-1-cyclohexanecarboxylic acid hydrochloride] | -0.0563 |
| CN1CCN(CC/C=C2/c3ccccc3Sc3ccc(S(=O)(=O)N(C)C)cc32)CC1 [Thiothixene hydrochloride] | -0.574 |
| CC(C)(C=O)Cc1cc(C(C)(C)C)c(O)c(C(C)(C)C)c1 | 0.0913 |
| CCCNC[C@H](O)COc1ccccc1C(=O)CCc1ccccc1 [(S)-(-)-propafenone hydrochloride] | 0.116 |
| N#Cc1c(-c2ccccc2)no[n+]1[O-] [4-Phenyl-3-furoxancarbonitrile] | 0.097 |
| CCn1c(=O)c2[nH]c(-c3ccccc3)nc2n(CC)c1=O [1,3-Diethyl-8-phenylxanthine] | -0.0388 |
| NCC(O)C1CCCCCCC1 (configuration not stated) [2-Cyclooctyl-2-hydroxyethylamine hydrochloride] | -0.00388 |
| CN1CCC(=C2c3ccccc3C=Cc3ccccc32)CC1 [Cyproheptadine hydrochloride] | 0.0563 |
| CC(=O)Nc1cccc(-n2c(=O)n(C3CC3)c(=O)c3c(Nc4ccc(I)cc4F)n(C)c(=O)c(C)c32)c1 | -0.0313 |
| CC[N+](C)(C)c1cccc(O)c1 [Edrophonium chloride] | 0.0598 |
| COc1ccc(CCN(C)CCCOc2ccc(S(=O)(=O)c3c(C(C)C)n(C)c4ccccc34)cc2)cc1OC | -0.148 |
| Cc1ccc(-c2csc3ncnc(SCCC(=O)O)c23)cc1 | 0.242 |
| NCCc1c[nH]cn1 [Histamine dihydrochloride] | -0.157 |
| O=C(/C=C/C#Cc1cccc(NS(=O)(=O)c2ccccc2)c1)NO [Oxamflatin] | 1.62 |
| Cc1cn[nH]c1 [4-Methylpyrazole hydrochloride] | -0.0781 |
| OCCN1CCN(CC/C=C2/c3ccccc3Sc3ccc(C(F)(F)F)cc32)CC1 [cis-(Z)-Flupenthixol dihydrochloride] | -0.18 |
| O=C(O)CCCCCCCC(=O)O [Azelaic acid] | -0.0796 |

Nothing new here: an excerpt of the list.

| Structure (SMILES) | S-phase gammaH2AX median (Z-score) |
| --- | --- |
| C#CC(N)CCC(=O)O (configuration not stated) [gamma-Acetylinic GABA] | -0.0641 |
| NCCC[C@](N)(C(=O)O)C(F)F (racemic) [DL-alpha-Difluoromethylornithine hydrochloride] | 0.0535 |
| N#Cc1ccc(C(c2ccc(C#N)cc2)n2cncn2)cc1 [Letrozole] | -0.00812 |
| CN1CCN(C2=Nc3ccccc3Oc3ccc(Cl)cc32)CC1 [Loxapine succinate] | 0.00473 |
| CC(=O)S[C@@H]1CC2=CC(=O)CC[C@]2(C)[C@H]2CC[C@@]3(C)[C@@H](CC[C@@]34CCC(=O)O4)[C@H]12 [Spironolactone] | -0.0467 |
| C#Cc1cccc(Nc2ncnc3cc(OC)c(OCCCCCCC(=O)NO)cc23)c1 | 0.11 |
| NNCCc1ccccc1 [Phenelzine sulfate] | -0.0213 |
| NC1(C(=O)O)CCCCC1 [1-Amino-1-cyclohexanecarboxylic acid hydrochloride] | -0.0563 |
| CN1CCN(CC/C=C2/c3ccccc3Sc3ccc(S(=O)(=O)N(C)C)cc32)CC1 [Thiothixene hydrochloride] | -0.574 |
| CC(C)(C=O)Cc1cc(C(C)(C)C)c(O)c(C(C)(C)C)c1 | 0.0913 |
| CCCNC[C@H](O)COc1ccccc1C(=O)CCc1ccccc1 [(S)-(-)-propafenone hydrochloride] | 0.116 |
| N#Cc1c(-c2ccccc2)no[n+]1[O-] [4-Phenyl-3-furoxancarbonitrile] | 0.097 |
| CCn1c(=O)c2[nH]c(-c3ccccc3)nc2n(CC)c1=O [1,3-Diethyl-8-phenylxanthine] | -0.0388 |
| NCC(O)C1CCCCCCC1 (configuration not stated) [2-Cyclooctyl-2-hydroxyethylamine hydrochloride] | -0.00388 |
| CN1CCC(=C2c3ccccc3C=Cc3ccccc32)CC1 [Cyproheptadine hydrochloride] | 0.0563 |
| CC(=O)Nc1cccc(-n2c(=O)n(C3CC3)c(=O)c3c(Nc4ccc(I)cc4F)n(C)c(=O)c(C)c32)c1 | -0.0313 |
| CC[N+](C)(C)c1cccc(O)c1 [Edrophonium chloride] | 0.0598 |
| COc1ccc(CCN(C)CCCOc2ccc(S(=O)(=O)c3c(C(C)C)n(C)c4ccccc34)cc2)cc1OC | -0.148 |
| Cc1ccc(-c2csc3ncnc(SCCC(=O)O)c23)cc1 | 0.242 |
| NCCc1c[nH]cn1 [Histamine dihydrochloride] | -0.157 |
| O=C(/C=C/C#Cc1cccc(NS(=O)(=O)c2ccccc2)c1)NO [Oxamflatin] | 1.62 |
| Cc1cn[nH]c1 [4-Methylpyrazole hydrochloride] | -0.0781 |

(continued)

| Structure (SMILES) | S-phase gammaH2AX median (Z-score) |
| --- | --- |
| CC(=Cc1ccc(C(=O)O)cc1)c1ccc2c(c1)C(C)(C)CCC2(C)C | -0.0467 |
| COC(=O)Nc1nc2cc(C(=O)c3cccs3)ccc2[nH]1 [Nocodazole] | -0.0804 ± 0.19 |
| C=CC(N)CCC(=O)O (configuration not stated) [(?)-gamma-Vinyl GABA] | -0.1 |
| CC(C)(C)c1cnc(CSc2cnc(NC(=O)C3CCNCC3)s2)o1 | 0.134 |
| CC1(C)CCC=[N+]1[O-] [5,5-Dimethyl-1-pyrroline-N-oxide] | -0.0157 |
| CC1(C)CCC(NC(=O)[C@@H](N)CCC(=O)O)CC1 | 0.0781 |
| O=C(O)C1CCNCC1 [Isonipecotic acid] | 0.0126 |
| O=C1NC(=O)C(c2ccccc2[N+](=O)[O-])=C1Nc1ccc(O)c(Cl)c1 | 0 |
| Oc1ccc(C2CNCCc3c2cc(O)c(O)c3Cl)cc1 (configuration not stated) [Fenoldopam bromide] | -0.18 |
| CCN(CC)CCCC(C)Nc1ccnc2cc(Cl)ccc12 (configuration not stated) [Chloroquine diphosphate] | -0.0621 |
| CNCCNS(=O)(=O)c1cccc2cnccc12 [H-8 dihydrochloride] | 0.111 |
| CCNC(=O)[C@H]1O[C@@H](n2cnc3c(N)nc(NCCc4ccc(CCC(=O)O)cc4)nc32)[C@H](O)[C@@H]1O | 0.0971 |
| C[C@](N)(Cc1ccc(O)cc1)C(=O)O [L-alpha-Methyl-p-tyrosine] | 0.0331 |
| C[N+](C)(C)CCOP(=O)(O)OP(=O)([O-])OC[C@H]1O[C@@H](n2ccc(N)nc2=O)[C@H](O)[C@@H]1O [Citicoline sodium] | -0.0621 |
| CN=c1nc(-c2ccccc2)n(-c2ccccc2)s1 | 0.147 |
| c1ccc2c(c1)CCCC2C1=NCCN1 (configuration not stated) [Tetrahydrozoline hydrochloride] | -0.0868 |
| CNc1ncnc2c1ncn2[C@@H]1O[C@H](CO)[C@@H](O)[C@H]1O [N6-Methyladenosine] | -0.289 |
| N[C@@H](CC(=O)O)C(=O)O [L-Aspartic acid] | 0.035 |
| O=C(OCCN1CCOCC1)C1(c2ccccc2)CCCCC1 | 0.0237 |
| CC(C)C[C@H](NC(=O)[C@H](Cc1ccccc1)NC(=O)c1cnccn1)B(O)O [Bortezomib (Velcade)] | -0.0128 |
| COc1ccc(CC(C)NCC(O)c2ccc(O)c(NC=O)c2)cc1 (configuration not stated) [Formoterol] | 0.0409 |

| Structure (SMILES) | S-phase gammaH2AX median (Z-score) |
| --- | --- |
| CS(=O)(=O)c1ccc(C(=O)Nc2ccc(Cl)c(-c3ccccn3)c2)c(Cl)c1 [Vismodegib (GDC-0449)] | 0.0329 |
| CCOC(=O)N1CCC(=C2c3ccc(Cl)cc3CCc3cccnc32)CC1 [Loratadine] | 0.21 |
| CCCCN1CCC(n2c(=O)[nH]c3ccccc32)CC1 [NS 521 oxalate] | 0.0142 |
| CC1(C)CCC(c2ccc(Cl)cc2)=C(CN2CCN(c3ccc(C(=O)NS(=O)(=O)c4ccc(N[C@H](CCN5CCOCC5)CSc5ccccc5)c(S(=O)(=O)C(F)(F)F)c4)cc3)CC2)C1 [ABT-263 (Navitoclax)] | 0.144 |
| O=C1NC(=O)/C(=C\c2cccc(C(F)(F)F)c2)S1 | 0.182 |
| C[C@]12CCC(=O)C=C1CC[C@@H]1[C@@H]2C(=O)C[C@@]2(C)[C@H]1CC[C@]2(O)C(=O)CO [Cortisone] | -0.173 |
| COCCCC/C(=N\OCCN)c1ccc(C(F)(F)F)cc1 [Fluvoxamine maleate] | -0.117 |
| O=S(=O)(O)C1CCNCC1 [Piperidine-4-sulphonic acid] | 0.151 |
| COc1cc2nc(N3CCN(C(=O)OCc4ccccc4)[C@H](C(=O)NC(C)(C)C)C3)nc(N)c2cc1OC | -0.214 |
| CNC(=O)[C@H]1O[C@@H](n2cnc3c(N)ncnc32)[C@H](O)[C@@H]1O [5'-N-Methyl carboxamidoadenosine] | 0.101 |
| CCCCCCCCCCCCCCCC(=O)NCC(COP(=O)([O-])OCC[N+](C)(C)C)OCC (racemic) [rac-2-Ethoxy-3-hexadecanamido-1-propylphosphocholine] | -0.126 |
| CCc1ccc(CCOc2ccc(CC3SC(=O)NC3=O)cc2)nc1 (configuration not stated) [Pioglitazone (Actos)] | 0.193 |
| O=C(CCCCCCC(=O)Nc1cccnc1)NO [Pyroxamide] | 0.383 |
| Cc1ccc(S(=O)(=O)C=CC#N)cc1 | 0.0684 |
| Cc1ccc(N(CC2=NCCN2)c2cccc(O)c2)cc1 [Phentolamine mesylate] | 0.296 |
| CC(C(=O)O)c1ccc(CC2CCCC2=O)cc1 (configuration not stated) [loxoprofen] | -0.0598 |
| O=C(c1cc(Cc2n[nH]c(=O)c3ccccc23)ccc1F)N1CCN(C(=O)C2CC2)CC1 [Olaparib (AZD2281)] | 1.15 |
| Clc1ccc2c(c1)C(N1CCNCC1)=Nc1ccccc1O2 [Amoxapine] | -0.0563 |
| O=C(O)CCc1nc(-c2ccccc2)c(-c2ccccc2)o1 [Oxaprozin] | 0.0781 |
